# Data published in PubChem BioAssay AID330 (DTP/NCI, 2004).
# The list is a part of this screen's results and no random one: it is rich in T/C values a quarter to a half above the control, in often repeated tests (any T/C) and in doses without a T/C. Other doses and runs of a compound stand elsewhere. T/C: endpoint of the treated group in % of that of the vehicle group. Some doses have a count of surviving animals in place of a T/C: the source holds a T/C of zero for them, seemingly a mark for toxic or unscored doses. Some survivor counts are full or nearly so, which does not show that the dose was tolerated: survival well below the control is almost never listed, so the zero probably covers shortened survival too. Counts of survivors are from the toxicity check (mostly the fifth day) where no day follows; animals may have died later. Schedule codes are those of the source, read here as Q, the interval in days (D) or hours (H), X, the number of doses. Some structures stand for samples that the source files as different forms (salt, stereo form or complex); doses refer to the form tested. Some entries were tested several times; their values stand side by side, smallest first. Where survival is the endpoint, the PubChem record calls one and a half times the control and up active, and a quarter to a half above the control has no call in these data; cut-offs in other NCI protocols can differ. Additions like (4×) count equal records among those shown.
# Tested on: P388 leukemia ip, CD2F1 mice, survival T/C
# Test: NCI In Vivo Anticancer Drug Screen. Data for tumor model P388 Leukemia (intraperitoneal) in CD2F1 (CDF1) mice
# Conditions: T/C endpoint: median survival time, higher T/C = longer survival
# [1] = dose: 200.0 mg/kg/injection, schedule: Q01DX005 (ip), vehicle: Klucel (hydroxypropylcellulose) (HPC)
# [2] = dose: 200.0 mg/kg/injection, schedule: Q01DX005 (ip), vehicle: saline with Tween-80
# [3] = dose: 120.0 mg/kg/injection, schedule: Q01DX005 (ip), vehicle: saline with Tween-80
# [4] = dose: 240.0 mg/kg/injection, schedule: Q01DX005 (ip), vehicle: saline with Tween-80
# [5] = dose: 200.0 mg/kg/injection, schedule: Q01DX005 (ip), vehicle: saline
# [6] = dose: 100.0 mg/kg/injection, schedule: Q01DX009 (ip), vehicle: saline with Tween-80
# [7] = dose: 50.0 mg/kg/injection, schedule: Q01DX009 (ip), vehicle: saline with Tween-80
# [8] = dose: 200.0 mg/kg/injection, schedule: Q01DX009 (ip), vehicle: saline
# [9] = dose: 50.0 mg/kg/injection, schedule: Q01DX009 (ip), vehicle: other
# [10] = dose: 200.0 mg/kg/injection, schedule: Q01DX009 (ip), vehicle: saline with Tween-80
# [11] = dose: 6.25 mg/kg/injection, schedule: Q01DX009 (ip), vehicle: saline
# [12] = dose: 50.0 mg/kg/injection, schedule: Q01DX009 (ip), vehicle: Klucel (hydroxypropylcellulose) (HPC)
# [13] = dose: 50.0 mg/kg/injection, schedule: Q01DX009 (ip), vehicle: saline
# [14] = dose: 12.5 mg/kg/injection, schedule: Q01DX009 (ip), vehicle: saline
# [15] = dose: 25.0 mg/kg/injection, schedule: Q01DX009 (ip), vehicle: saline
# [16] = dose: 100.0 mg/kg/injection, schedule: Q01DX009 (ip), vehicle: Klucel (hydroxypropylcellulose) (HPC)
# [17] = dose: 200.0 mg/kg/injection, schedule: Q01DX009 (ip), vehicle: Klucel (hydroxypropylcellulose) (HPC)
# [18] = dose: 60.0 mg/kg/injection, schedule: Q01DX005 (ip), vehicle: saline with Tween-80
# [19] = dose: 100.0 mg/kg/injection, schedule: Q01DX009 (ip), vehicle: saline
smiles,measurement,setting,value
COc1ccc(/C=C/c2ccc3ccccc3[n+]2C)c(OC)c1OC,T/C,"dose: 2.5 mg/kg/injection, schedule: Q01DX009 (ip), vehicle: Klucel (hydroxypropylcellulose) (HPC)",125 % of control
same,T/C,"dose: 10.0 mg/kg/injection, schedule: Q01DX009 (ip), vehicle: Klucel (hydroxypropylcellulose) (HPC)",127 % of control
same,survivor count,"dose: 20.0 mg/kg/injection, schedule: Q01DX009 (ip), vehicle: Klucel (hydroxypropylcellulose) (HPC)",1 of 6
same,survivor count,"dose: 40.0 mg/kg/injection, schedule: Q01DX009 (ip), vehicle: Klucel (hydroxypropylcellulose) (HPC)",0 of 6
COc1cc2c(c3c1c(=O)c1ccccc1n3C)C=CC(C)(C)O2,survivor count,[1],2 of 6
same,survivor count,[2],0 of 6
same,survivor count,"dose: 400.0 mg/kg/injection, schedule: Q01DX005 (ip), vehicle: Klucel (hydroxypropylcellulose) (HPC)",0 of 6
CN1CCC(O)(C(=O)c2ccccc2)CC1,survivor count,"dose: 400.0 mg/kg/injection, schedule: Q04DX002 (ip), vehicle: saline",2 of 6 and 4 of 6
CN1C(=O)n2c(nc3ccccc32)C(N=[N+]=[N-])(N=[N+]=[N-])C1=O (stereo not given),survivor count,[3],2 of 6
same,survivor count,[4],0 of 6
O=C(OCCOCCN1CCCCC1)C1c2ccccc2Sc2ccc(Cl)cc21 (stereo not given),survivor count,"dose: 100.0 mg/kg/injection, schedule: Q01DX005 (ip), vehicle: saline",0 of 6
same,survivor count,[5],0 of 6
S=C1N(c2ccc(Cl)cc2)C2=C(N=Nc3cc(Cl)ccc3Cl)C(=Nc3ccccc3S2)N1c1ccccn1,survivor count,[3],2 of 6
same,survivor count,[4],0 of 6
OCN(CO)c1nc(N(CO)CO)nc(N(CO)CO)n1,survivor count,"dose: 25.0 mg/kg/injection, schedule: Q01DX009 (ip), vehicle: saline with Tween-80",6 of 10
same,survivor count,[6],1 of 10
CCCCCCCCCCCCCC1=NCCN1CCN,T/C,[7],135 % of control
same,survivor count,[8],3 of 6
O=c1n(-c2ccccc2)c(=O)n2n1CC(c1ccccc1)=N2,survivor count,"dose: 25.0 mg/kg/injection, schedule: Q01DX009 (ip), vehicle: other",6 of 6
same,survivor count,[9],6 of 6
CCOC(=O)/C=C(\I)C(=O)OCC,survivor count,[7],0 of 6
same,survivor count,[6],0 of 6
same,survivor count,[10],0 of 6
Cc1cnc(/C=N\NC(N)=S)c2cccc(N)c12,T/C,"dose: 3.13 mg/kg/injection, schedule: Q01DX009 (ip), vehicle: Klucel (hydroxypropylcellulose) (HPC)",136 % of control (2×)
same,T/C,"dose: 3.13 mg/kg/injection, schedule: Q01DX009 (ip), vehicle: other",139 % of control
same,T/C,"dose: 3.13 mg/kg/injection, schedule: Q01DX009 (ip), vehicle: saline",144 % of control
same,T/C,"dose: 3.13 mg/kg/injection, schedule: Q01DX009 (ip), vehicle: water",146 % of control
same,T/C,"dose: 6.25 mg/kg/injection, schedule: Q01DX009 (ip), vehicle: Klucel (hydroxypropylcellulose) (HPC)",143 and 145 % of control
same,T/C,"dose: 6.25 mg/kg/injection, schedule: Q01DX009 (ip), vehicle: other",144 % of control
same,T/C,"dose: 6.25 mg/kg/injection, schedule: Q01DX009 (ip), vehicle: saline with Tween-80",136 % of control
same,T/C,[11],134 % of control
same,T/C,"dose: 7.2 mg/kg/injection, schedule: Q01DX005 (ip), vehicle: clinical formulation",128 % of control
same,survivor count,[12],6 of 6
same,survivor count,[9],0 of 6
same,survivor count,[13],6 of 6
same,survivor count,"dose: 50.0 mg/kg/injection, schedule: Q01DX009 (ip), vehicle: water",5 of 6
COP(=O)(O)OC,survivor count,"dose: 100.0 mg/kg/injection, schedule: Q01DX001 (ip), vehicle: Klucel (hydroxypropylcellulose) (HPC)",6 of 6
CCN(CC)CCOc1ccc(NC2=C(Cl)C(=O)C(Nc3ccc(OCCN(CC)CC)cc3)=C(Cl)C2=O)cc1,survivor count,[7],3 of 6
CC(=O)Oc1ccc(/C=N\N(C)C)cc1,survivor count,[8],6 of 6
O=C(CCN1CCCCC1)c1ccccc1,survivor count,[6],0 of 6
same,survivor count,[10],0 of 6
O=C(Nc1ccc(Cl)c(Cl)c1)n1cnc2ccccc21,survivor count,[11],5 of 6
same,T/C,[14],97 and 106 % of control (2×)
same,survivor count,[14],6 of 6
same,T/C,[15],"93, 107, 116 % of control"
same,survivor count,[15],5 of 6
same,T/C,[13],"112, 115, 123 % of control"
same,survivor count,[13],6 of 6
same,survivor count,[6],6 of 6
same,survivor count,[10],5 of 6
CSC(SC)(SC)SC,survivor count,[10],2 of 6
same,survivor count,"dose: 400.0 mg/kg/injection, schedule: Q01DX009 (ip), vehicle: saline with Tween-80",0 of 6
O=C1CC2(CCCC2)C(=O)N1c1ccccc1O,T/C,[16],127 % of control
same,T/C,[17],127 % of control
same,survivor count,"dose: 400.0 mg/kg/injection, schedule: Q01DX009 (ip), vehicle: Klucel (hydroxypropylcellulose) (HPC)",4 of 6
CCOc1nc(N)nc(C)c1N=Nc1ccc(Cl)cc1,survivor count,"dose: 240.0 mg/kg/injection, schedule: Q01DX005 (ip), vehicle: Klucel + Tween-80",4 of 6
COc1ccc(/C(=N/SC)N(C)C)cc1,survivor count,[18],0 of 6
same,survivor count,[3],0 of 6
same,survivor count,[4],0 of 6
COc1cc(N=Nc2cc(CN(C)C)cc3ncccc23)c(OC)cc1N=Nc1ccc([N+](=O)[O-])cc1,survivor count,[12],6 of 6
same,T/C,[17],128 % of control
CS(=O)(=O)OCC(O)C(O)COS(C)(=O)=O (stereo not given),survivor count,[19],10 of 10
same,survivor count,[8],10 of 10
same,T/C,"dose: 800.0 mg/kg/injection, schedule: Q01DX009 (ip), vehicle: saline",145 % of control
N#CC(C#N)=C(C#N)C#N,survivor count,"dose: 400.0 mg/kg/injection, schedule: Q04DX003 (ip), vehicle: saline with Tween-80",0 of 6
O=[N+]([O-])c1cnc(Sc2cncc[n+]2[O-])s1,survivor count,"dose: 12.5 mg/kg/injection, schedule: Q01DX009 (ip), vehicle: Klucel (hydroxypropylcellulose) (HPC)",4 of 6
same,survivor count,"dose: 25.0 mg/kg/injection, schedule: Q01DX009 (ip), vehicle: Klucel (hydroxypropylcellulose) (HPC)",0 of 6
same,survivor count,[12],0 of 6
same,survivor count,[16],0 of 6
same,survivor count,[17],0 of 6
OCc1cnccc1Cl,survivor count,"dose: 240.0 mg/kg/injection, schedule: Q01DX005 (ip), vehicle: saline",1 of 6
C=CC(C)(C)[N+](C)(C)C,survivor count,[13],3 of 6
OCCN1CCN(CCCN2c3cc(Cl)ccc3Sc3sccc32)CC1,survivor count,[1],1 of 6
same,survivor count,[5],1 of 6
N#CCc1nc2ccccc2nc1Cl,survivor count,"dose: 200.0 mg/kg/injection, schedule: Q01DX009 (ip), vehicle: distilled water + Tween-80 + alcohol",4 of 6
COc1cc(/C=N/N2CC(=O)N(c3cccc(Cl)c3)CC2=O)cc(OC)c1,survivor count,[18],6 of 6
same,survivor count,[3],6 of 6
same,survivor count,[4],5 of 6
O=Cc1coc2ccccc2c1=O,T/C,[13],132 % of control
same,T/C,[19],139 % of control
same,survivor count,[8],"1 of 6, 3 of 6, 4 of 6"
same,survivor count,"dose: 400.0 mg/kg/injection, schedule: Q01DX009 (ip), vehicle: saline",0 of 6 and 1 of 6
CC(C)(CS)C(=O)O,survivor count,[19],1 of 6
same,survivor count,[8],0 of 6
Cc1ncc2c(n1)CCC1=C2OS(=O)(=O)CC1N(C)C (stereo not given),survivor count,[2],0 of 6
